Measured values: US20250334588A1, “TREATING TUBEROUS SCLEROSIS COMPLEX-ASSOCIATED DISEASES” (The Brigham and Women's Hospital, Inc., priority 2022, published 2025)
For some of these results: For at least one compound, name, drawing or mass did not settle the structure. Some results were stated once for a whole list of compounds, not compound by compound.

Tests used:
[1] = test system: patient-derived TSC2-deficient 621-101 cells; assay: Cell line estradiol treatment and scRNA-Seq; type: cell-based, human; settings: 100 nM estradiol, 24 hours
[2] = test system: subcutaneous tumors using the TSC2-deficient TTJ cells; assay: Allograft tumors: subcutaneous TTJ tumors in athymic nude mice; type: in vivo, mouse; settings: after 8 treatments; rapamycin 3 mg/kg, 3 times/wk
Method: Animal studies were approved by the Brigham and Women's Hospital Animal Care and Use Committee (IACUC). All husbandry and experiment procedures with mice were conducted in accordance with protocols approved. Mice were provided water and food ad libitum and were housed on a standard light (12h) and dark (12h) cycle at 72° F. and 40% humidity. Athymic nude mice (Crl: NU (NCr)-Foxn1^nu, Charles River Laboratories, Wilmington, MA) were all seven-week-old female mice at the time of TTJ cell injection for allograft experiments. In all mice experiments, maximal tumour sizes were not exceeded 1500 mm3, the maximal tumour size permitted by IACUC.
Seven-week-old female athymic nude mice (Crl: NU (NCr)-Foxn1^nu, Charles River) were subcutaneously injected with 3 million TTJ cells (75 μl cells mixed with 75 μl Matrigel, Corning 356237) on the front flank. All treatments started at day 8 after tumor inoculation when average tumor volume reached around 300 mm^3. Mice were randomized in groups for treatment. […] Tumor volume was measured immediately before each treatment using a caliper.

[3] = test system: normal human lung fibroblasts NHLF; assay: Combination treatment and proliferation assay (crystal violet), NHLF cells; type: cell-based; settings: iMDK 1 μM, rapamycin 20 nM, alone or combined
Method: The following cell lines were maintained in our lab: patient-derived TSC2-deficient cell line 621-101, TSC2-addback cell line 621-103, mouse kidney derived TSC2-null cell line TTJ (the gift of Vera Krymskaya) and TSC2-add back cell line TTJ-TSC2. The normal human lung fibroblasts NHLF (CC-2512) was purchased from Lonza Group (Switzerland). All cells were cultured in DMEM supplemented with 10% FBS (Thermofisher Scientific), and were cultured at 37° C. in a humidified chamber with 5% CO2 during the experiments. TSC2-null and TSC2-add back cell lines are routinely authenticated using western immunoblotting and qPCR to confirm TSC2 protein loss and expression before any experiment. All cells used in this study were tested negative for mycoplasma contamination. All cells in our laboratory are monthly tested for mycoplasma contamination.
621-101 cells, TTJ cells, or normal human fibroblasts NHLF cells were seeded in 12-well plates in DMEM with 10% FBS at 20-30% confluency. Cells were treated with DMSO (control), iMDK (1 μM), rapamycin (20 nM), or combined iMDK (1 μM) and rapamycin (20 nM) until the control group reached over 100% confluency. Drugs were refreshed every 2 days to ensure maximum activity. Cell proliferation was assessed using Crystal violet Assay Kit (Cell viability) (ab232855, abcam).

[4] = test system: primary culture from AML tumor (AML1162); assay: Rapamycin treatment and scRNA-Seq of tumor-derived primary culture; type: cell-based, human; settings: rapamycin 20 nM, 24 hours

SMILES | Expression of Estrogen Related Receptor Alpha (ESRRA) [1] | NR2F1 expression and regulon activity [1] | Expression of major dormancy genes (scRNA-Seq) ([1]; vs vehicle control) | Averaged tumor size, of pre-treatment volume [2] [%] | Cell proliferation (crystal violet assay) [3] | Expression of AML tumor marker genes ([4]; cluster 4) | Expression of SQSTM1 (p62) and SOD2 ([4]; cluster 4) | Expression of AML tumor marker genes (including CTSK) ([4]; other clusters) | Levels of the dormancy inducer NR2F1 and the hormonal regulator ESRI (ERa) [4] | Effect on overall transcriptomes (scRNA-Seq) ([4]; vs DMSO)
C[C@]12CC[C@@H]3c4ccc(O)cc4CC[C@H]3[C@@H]1CC[C@@H]2O [estradiol] | elevated | increased | upregulated |  |  |  |  |  |  | 
CO[C@H]1C[C@@H]2CC[C@@H](C)[C@@](O)(O2)C(=O)C(=O)N2CCCC[C@H]2C(=O)O[C@H]([C@H](C)C[C@@H]2CC[C@@H](O)[C@H](OC)C2)CC(=O)[C@H](C)/C=C(\C)[C@@H](O)[C@@H](OC)C(=O)[C@H](C)C[C@H](C)/C=C/C=C/C=C/1C [rapamycin] |  |  |  | < 20 | dramatic growth inhibitory effect | unaffected | unaffected | suppressed expression | unchanged | striking effect
